For test [1], the target named is T1, IFITM3-wt fused to SCFP or SYFP (interferon-induced transmembrane protein 3) (UniProt Q01628 1-133).
T1 construct: interferon-induced transmembrane protein 3 (IFITM3), wild type; One molecule stands for both FRET copies (SCFP3A fusion and SYFP2 fusion); also called SxFP-IFITM3; IFTIM3; source: 293T, transiently transfected, in cells; not shown: SCFP3A or SYFP2, N-terminal, kept
The experiment in a line: FRET or BRET; flow cytometry-based FRET (FACS-FRET) in transiently transfected HEK 293T cells, usually 1 µg of each plasmid encoding the FRET partners; read-out percent of FRET-positive cells; where the paper tells the orientation the binder is the SCFP fusion (donor) and the target the SYFP fusion (acceptor). (In general: BRET reads energy transfer from a luciferase to a nearby fluorophore.)

Amino acid sequences for entries named in this document (tags omitted). A change or cut given only in a name is not applied to a line headed by its entry. Chains listed by the source or under a name are the forms on record and can include a tag or linker.
UniProt Q01628: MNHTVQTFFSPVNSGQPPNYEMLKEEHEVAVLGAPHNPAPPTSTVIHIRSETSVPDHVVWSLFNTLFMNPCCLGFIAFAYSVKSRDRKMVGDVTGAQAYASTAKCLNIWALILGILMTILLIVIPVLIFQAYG
IFITM3-43AS (amino acids 43–48 changed to alanines) with 3xFLAG or myc tag (Q01628, form named): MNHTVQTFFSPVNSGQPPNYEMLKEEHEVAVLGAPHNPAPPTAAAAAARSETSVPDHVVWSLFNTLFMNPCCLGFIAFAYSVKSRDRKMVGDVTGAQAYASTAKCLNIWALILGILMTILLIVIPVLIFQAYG
UniProt Q01629: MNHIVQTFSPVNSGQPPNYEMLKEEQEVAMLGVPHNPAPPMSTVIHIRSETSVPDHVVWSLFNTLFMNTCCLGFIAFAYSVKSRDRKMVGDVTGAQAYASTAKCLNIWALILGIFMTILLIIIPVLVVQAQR

Test [2] has as its target IFITM2 fused to SCFP or SYFP (interferon-induced transmembrane protein 2) (UniProt Q01629). Described as above.
Test [3] addresses T2, IFITM5 fused to SCFP or SYFP (interferon-induced transmembrane protein 5) (human) (UniProt A6NNB3).
T2 sequence: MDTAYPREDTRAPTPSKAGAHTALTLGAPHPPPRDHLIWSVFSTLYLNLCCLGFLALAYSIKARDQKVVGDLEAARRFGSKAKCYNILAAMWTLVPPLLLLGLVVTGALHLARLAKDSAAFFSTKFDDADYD
The description is as above.

The target in test [4] is IFITM3-43AS (amino acids 43–48 changed to alanines) fused to SCFP or SYFP (UniProt Q01628). The description is as above.
The target of test [5] is IFITM3-wt with 3xFLAG or myc tag (UniProt Q01628). In words: co-IP; 293T cells cotransfected with 2 µg each of plasmids for myc- and 3xFLAG-tagged IFITM3 proteins; lysis in 50 mM Tris pH 7.4, 150 mM NaCl, 0.5% CHAPSO; precipitation with anti-FLAG (M2), blot with anti-myc (9E10).
Test [6] has as its target T1, IFITM3-wt fused to SCFP or SYFP …. The experiment in a line: FRET or BRET; FACS-FRET in 293T cells with reduced amounts of transfected plasmids; data not shown.
In test [7] the target is IFITM3-FF (F75A, F78A) fused to SCFP or SYFP (UniProt Q01628). In words: FRET or BRET; flow cytometry-based FRET (FACS-FRET) in transiently transfected HEK 293T cells, usually 1 µg of each plasmid encoding the FRET partners; read-out percent of FRET-positive cells; where the paper tells the orientation the binder is the SCFP fusion (donor) and the target the SYFP fusion (acceptor).

Test [8] deals with IFITM3-FF (F75A, F78A) with 3xFLAG or myc tag (UniProt Q01628). The experiment in a line: co-IP; 293T cells cotransfected with 2 µg each of plasmids for myc- and 3xFLAG-tagged IFITM3 proteins; lysis in 50 mM Tris pH 7.4, 150 mM NaCl, 0.5% CHAPSO; precipitation with anti-FLAG (M2), blot with anti-myc (9E10).
Test [9] has as its target IFITM1 fused to SCFP or SYFP (interferon-induced transmembrane protein 1) (UniProt P13164). The experiment in a line: FRET or BRET; flow cytometry-based FRET (FACS-FRET) in transiently transfected HEK 293T cells, usually 1 µg of each plasmid encoding the FRET partners; read-out percent of FRET-positive cells; where the paper tells the orientation the binder is the SCFP fusion (donor) and the target the SYFP fusion (acceptor).

No constants are given. Whether binding was seen depends on the method and setting. In cells and extracts the contact can be indirect. Some binding calls cover weakened binding; strength is not graded here. For some assays here: Sequences can lack the tags named with a protein.

Turning to “IFITM2 fused to SCFP or SYFP (interferon-induced transmembrane protein 2) (from UniProt Q01629 1-132)”, the binding result in test [1], in test [2] and in test [3] was “binds” each time.
“IFITM3-43AS (amino acids 43–48 changed to alanines) fused to SCFP or SYFP (from UniProt Q01628 1-133)”: the binding entry in test [1] and in test [4] was “binds” throughout.
With “IFITM3-43AS (amino acids 43–48 changed to alanines) with 3xFLAG or myc tag (from UniProt Q01628 1-133)”, the binding entry in test [5] is “binds”.
Regarding “IFITM3-FF (F75A, F78A) fused to SCFP or SYFP (from UniProt Q01628 1-133)”, the binding entry in test [6], in [1] and in test [7] was “binds” each time.
Regarding “IFITM3-FF (F75A, F78A) with 3xFLAG or myc tag (from UniProt Q01628 1-133)”, the binding entry in [8] and in test [5] was “binds” each time.
As for “IFITM3-wt fused to SCFP or SYFP (interferon-induced transmembrane protein 3) (from UniProt Q01628 1-133)”, the binding result in test [6], in test [1] and in test [3] was “binds” each time.
As for “IFITM3-wt with 3xFLAG or myc tag (from UniProt Q01628 1-133)”, the binding entry in [5] is “binds”.

B1: IFITM1 fused to SCFP or SYFP (interferon-induced transmembrane protein 1) (natural protein, UniProt P13164 1-125, looked up)
chain: MHKEEHEVAVLGPPPSTILPRSTVINIHSETSVPDHVVWSLFNTLFLNWCCLGFIAFAYSVKSRDRKMVGDVTGAQAYASTAKCLNIWALILGILMTIGFILLLVFGSVTVYHIMLQIIQEKRGY
notes: interferon-induced transmembrane protein 1 (IFITM1); One molecule stands for both FRET copies: one carries SCFP3A (donor), the other SYFP2 (acceptor); also called SCFP3A-IFITM1; SYFP2-IFITM1; source: 293T, transiently transfected, in cells; not shown: SCFP3A or SYFP2, N-terminal, kept
In the case of B1, the binding result in test [1], in test [9], in [2] and in [3] was “binds” in each case.

B2: IFITM5 fused to SCFP or SYFP (interferon-induced transmembrane protein 5) (protein, UniProt A6NNB3 1-132)
chain: MDTAYPREDTRAPTPSKAGAHTALTLGAPHPPPRDHLIWSVFSTLYLNLCCLGFLALAYSIKARDQKVVGDLEAARRFGSKAKCYNILAAMWTLVPPLLLLGLVVTGALHLARLAKDSAAFFSTKFDDADYD
On to B2, for which, in test [3], the binding entry is given as “binds”.

The record behind these values is PMC6719045, “Analysis of IFITM-IFITM Interactions by a Flow Cytometry-Based FRET Assay” (International Journal of Molecular Sciences, 2019).
